From paper PMC7819943, “Rice protein-binding microarrays: a tool to detect cis-acting elements near promoter regions in rice” come the findings set out here.

Some of the results follow.

The target in this experiment is T1, OsSMF1 (Oryza sativa, UniProt Q6ZLB0 1-436).
T1 sequence: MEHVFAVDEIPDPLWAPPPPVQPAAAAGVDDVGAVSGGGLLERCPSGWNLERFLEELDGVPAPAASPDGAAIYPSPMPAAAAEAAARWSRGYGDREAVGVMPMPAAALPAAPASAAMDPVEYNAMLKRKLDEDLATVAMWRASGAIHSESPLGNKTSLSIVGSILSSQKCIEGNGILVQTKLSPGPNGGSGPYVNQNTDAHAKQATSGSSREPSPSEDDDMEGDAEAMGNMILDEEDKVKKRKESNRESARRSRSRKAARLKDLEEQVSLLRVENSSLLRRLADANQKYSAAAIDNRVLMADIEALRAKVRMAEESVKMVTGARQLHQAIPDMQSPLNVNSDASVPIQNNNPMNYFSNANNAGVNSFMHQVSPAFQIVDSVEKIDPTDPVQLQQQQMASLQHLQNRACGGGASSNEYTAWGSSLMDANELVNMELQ
The experiment in a line: protein-binding microarray (RPBM); PBS, 2% BSA, 51.3 ng/ul salmon testes DNA, 50 uM zinc acetate, 200 nM TF, 25 C, 1 h; high values mean tight binding. The settings on record: protein: recombinant; tags: N-terminal polyhistidine and DsRed monomer fusion (pET32a); chain copies: 2; label: CyDye5-dUTP incorporated in the synthesized complementary strand; 3' TTTTT single-stranded linker to array surface; dsDNA, one strand shown. In outline:
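An Axon 4000B scanner gave the binding signal as per-feature fluorescence intensity in arbitrary units. This followed washing of a custom Agilent array that had been incubated for 1 h at 25 °C with 200 nM protein in PBS, 2% BSA, salmon testes DNA and 50 µM zinc acetate. The proteins were transcription factors fused at the N-terminus to polyhistidine and DsRed, expressed in E. coli BL21-CodonPlus and purified on Ni–NTA.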
“TCGAATGTTGGAAATAAACACGTCATGGTGTATTCCTGGCCGGAGTCACCTAGTGCAG”: the binding signal was 18300 fluorescence intensity (a.u.). As for “GCGGCAGCGACGGCGGCGGCGGCTAGTGACGGTGGCGGATCGGAGTCACCTAGTGCAG”, the binding signal was 3340 fluorescence intensity (a.u.). The result for “AAATTTGCCACCCGGCTACACGCGCGGCCCAAGGTTGTGGCGGAGTCACCTAGTGCAG” reads 3200 fluorescence intensity (a.u.); that for “TAGTAGACTAGCAGGAGTCCACATCGTCCCATCAACGCTGCGGAGTCACCTAGTGCAG”, 3190 fluorescence intensity (a.u.).

For the sequence “CTAGTGTGTGTCCTCTCACTTCTTACTCTCCGTGTATTTTCGGAGTCACCTAGTGCAG”, the binding signal is 3310 fluorescence intensity (a.u.). “TCCCTGATATGTAAGTCCCACAAGCTGACTCAGCTAGAGTCGGAGTCACCTAGTGCAG”: the binding signal is 11000 fluorescence intensity (a.u.).

Consider “GGCAATCATCTTGAAGCATATCAACCCAACCTGATGTTGTCGGAGTCACCTAGTGCAG”, for which the binding signal is 28100 fluorescence intensity (a.u.). The same measure for “TATTAGGTTTGTGGTATCCATAACCCTGACACATCCCTTCCGGAGTCACCTAGTGCAG”: 4110 fluorescence intensity (a.u.); for “TTTTCGCCCTTTACAGTCTTCGTCTTCGCTACTCGGTGGGCGGAGTCACCTAGTGCAG”: 19300 fluorescence intensity (a.u.); for “GATTCGTTGAATACCGTCATTATTGGTGGGTTATCATCATCGGAGTCACCTAGTGCAG”: 3490 fluorescence intensity (a.u.). The result for “CCGTCCGATCGGATCGGACGGTAGAAACGGCACGTGGCTCCGGAGTCACCTAGTGCAG” reads 5290 fluorescence intensity (a.u.); that for “TGGCGCCAGCCCTTAAGATTTGGGGAGGAGGGGTGGAACGCGGAGTCACCTAGTGCAG”, 3440 fluorescence intensity (a.u.); that for “GAATGCAAACAATGGTGGTGACTTTATCAGGGATGATAATCGGAGTCACCTAGTGCAG”, 4090 fluorescence intensity (a.u.). The result for “TAGTGTTTGTTTTGGGTTGTGCTCAGCTTAGCTCTGGTGTCGGAGTCACCTAGTGCAG” reads 39800 fluorescence intensity (a.u.); that for “ACACCATGAACACGTAGGTACATTTGCGTTCTGTATATATCGGAGTCACCTAGTGCAG”, 6180 fluorescence intensity (a.u.).

Turning to “ATGAGATTTTGAGTCATACATTATGACTTAAAATTCAATTCGGAGTCACCTAGTGCAG”, the binding signal is 3280 fluorescence intensity (a.u.). On to “GTTTCATTAAATATAAACATTGGATATATATTGATAATATCGGAGTCACCTAGTGCAG”, for which the binding signal is 3660 fluorescence intensity (a.u.). The same measure for “TTCGTCAAACATTGTGACCCGGATCACGTGGATCACATCGCGGAGTCACCTAGTGCAG”: 4580 fluorescence intensity (a.u.); for “CGTAGAGGAATAACAATGGAACGTCATCCCTCTCTGTTCGCGGAGTCACCTAGTGCAG”: 4120 fluorescence intensity (a.u.). Regarding “TGGCCTTCTATAAAACGTGGCACCTCTCGCTCCTCCTCGCCGGAGTCACCTAGTGCAG”, the binding signal was 8820 fluorescence intensity (a.u.). The result for “ATTCAACCACTGTTTTCTCTGCATGAACCTCTGTCACCCTCGGAGTCACCTAGTGCAG” reads 3210 fluorescence intensity (a.u.); that for “CCCTAGAAAACGATTTGTGTACAGTGCATGACAGGGACAGCGGAGTCACCTAGTGCAG”, 3390 fluorescence intensity (a.u.). For “CCCTCGCCACCACATCGACACGCCGAGATCCGCCGTTGCACGGAGTCACCTAGTGCAG”, the binding signal is 4090 fluorescence intensity (a.u.). The result for “AAGTAGCGATCTAGTCACGGTATTAGATGCGTCAACTCCACGGAGTCACCTAGTGCAG” reads 7350 fluorescence intensity (a.u.). Consider “GTGTTGCTGACTGTAAATATAGACGAACTACCCCACACAACGGAGTCACCTAGTGCAG”, for which the binding signal was 3700 fluorescence intensity (a.u.).

Regarding “CTATGGTAGGTAGGGTTTTCGTGTTGCGAGGTTACAGGGGCGGAGTCACCTAGTGCAG”, the binding signal is 3350 fluorescence intensity (a.u.).

With “AGGGGTGTGATGATGGTGGCGTCAAGTCATCGGCGATGGCCGGAGTCACCTAGTGCAG”, the binding signal was 4140 fluorescence intensity (a.u.). The same measure for “TCACTCACAAGACGCGACGTTACTAACGAATGACCCAAGGCGGAGTCACCTAGTGCAG”: 3760 fluorescence intensity (a.u.). The same measure for “TAGTGGATCTCAGTGCCCACGGCGGCATGCCACGCGCCGGCGGAGTCACCTAGTGCAG”: 4640 fluorescence intensity (a.u.); for “AAGGTAGTAAGGCTCTTGCTGGTAACTGTCACCAACCAATCGGAGTCACCTAGTGCAG”: 3660 fluorescence intensity (a.u.). As for “TAATTTCGTTAAGTCCATCATCGATTATGGATGTTTCTATCGGAGTCACCTAGTGCAG”, the binding signal is 26600 fluorescence intensity (a.u.). As to “ACATCGGTTATGATGTAGATCATGGCACTATGTTTGTTCACGGAGTCACCTAGTGCAG”, the binding signal is 25500 fluorescence intensity (a.u.). Regarding “TCTCTTCTCGACGGAGACACGCACTCACTCTCTCTCTCGCCGGAGTCACCTAGTGCAG”, the binding signal is 4640 fluorescence intensity (a.u.). The result for “TCATCTGAAACCAATTTCCAAGCCACGTAAGAAGTTGATTCGGAGTCACCTAGTGCAG” reads 5140 fluorescence intensity (a.u.); that for “CCTCCCTCACGCCAGAAGTATCCTGATGACACACACGGCGCGGAGTCACCTAGTGCAG”, 4470 fluorescence intensity (a.u.); that for “CCGCCTCGCCGCGTGCCTCTGGAACAATCTGGCGCTGCCGCGGAGTCACCTAGTGCAG”, 3700 fluorescence intensity (a.u.).

As to “TAACTATAACGGCACGGTCATGCCGTTGGCAAATCCTGATCGGAGTCACCTAGTGCAG”, the binding signal was 3570 fluorescence intensity (a.u.).

“ACGAAGAGAAGAAGGAAAAGAGATGGGTGATGACGTGGACCGGAGTCACCTAGTGCAG”: the binding signal was 35700 fluorescence intensity (a.u.). The same measure for “TCGTTCTCCACCGCACCTGATGGTACCGCATCGCCCGACGCGGAGTCACCTAGTGCAG”: 6260 fluorescence intensity (a.u.).

In the case of “GCACATACGTGTGTTTGTGTGTATATGTTGTACATATTTACGGAGTCACCTAGTGCAG”, the binding signal is 3410 fluorescence intensity (a.u.). The same measure for “CCTGTCACATTGAACATTTGAACACCTGCATGAAGTATTACGGAGTCACCTAGTGCAG”: 33900 fluorescence intensity (a.u.); for “CACGGGACAACTGACCGGCACGGCAGCACACGCCACCATTCGGAGTCACCTAGTGCAG”: 3340 fluorescence intensity (a.u.).
